No constants are given. Whether binding was seen depends on the method and setting. Some results given as binding are weak or reduced against the parent protein; the word gives no strength.
Assays:
[1] = target: T1, Biotinylated AF9, C-terminal 368 aa of human AF9 made by coupled in vitro transcription and translation (human) (UniProt P42568); test: FIG. 2A legend, competition for AF9 against GST-AF4
T1 sequence (chain, Biotinylated (positions not stated)): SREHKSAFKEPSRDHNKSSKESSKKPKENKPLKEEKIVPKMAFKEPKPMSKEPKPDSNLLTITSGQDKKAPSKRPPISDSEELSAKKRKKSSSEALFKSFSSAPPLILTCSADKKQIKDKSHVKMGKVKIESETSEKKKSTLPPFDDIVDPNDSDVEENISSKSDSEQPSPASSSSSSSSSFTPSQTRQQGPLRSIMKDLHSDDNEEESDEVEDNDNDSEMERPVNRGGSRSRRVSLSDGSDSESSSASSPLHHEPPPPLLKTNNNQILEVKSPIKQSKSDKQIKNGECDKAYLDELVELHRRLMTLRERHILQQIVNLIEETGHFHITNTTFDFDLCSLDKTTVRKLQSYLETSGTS

[2] = target: T1, Biotinylated AF9, C-terminal 368 aa of human AF9 made by coupled in vitro transcription and translation (human); test: enzyme-linked competition assay, 20 µg/ml peptide, AF9 on plate-bound GST-AF4(749-775)
[3] = target: T1, Biotinylated AF9, C-terminal 368 aa of human AF9 made by coupled in vitro transcription and translation (human); test: in vitro competition assays against GST-AF4(749-775)
[4] = target: T1, Biotinylated AF9, C-terminal 368 aa of human AF9 made by coupled in vitro transcription and translation (human); test: FIG. 2B legend, competition for AF9 against GST-AF4
[5] = target: T1, Biotinylated AF9, C-terminal 368 aa of human AF9 made by coupled in vitro transcription and translation (human); test: GST pull-down competition against GST-AF4(749-775)

Measured: binding

LWVKIDLDLLSR [… (Leu-Trp-Val-Lys-Ile-Asp-Leu-Asp-Leu-Leu-Ser-Arg)]
binds: [1] | [2]

RQIKWFQNRRMKWKKLWVKIDLDLLSRVP
binds: all assays above

LWVKIDLDLL [… (Leu-Trp-Val-Lys-Ile-Asp-Leu-Asp-Leu-Leu)]
binds: [1] | [2]

From patent publication US20050222012A1
